The other results are listed elsewhere or left out. Hit calls seldom repeat between salt and free forms of one compound.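 Kinases were expressed as nanoluciferase fusions in K562 cells and luminescence was read every 4 h between 2 and 18 h as percent of control, DMSO set to 100% and a positive control to 0%. A time point counts as decreased when the signal drops significantly (2 sigma). The hit call is the authors' own, does not follow from the count of time points alone, and its rule is not shown.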
Key:
Assay in all cases: kinase-Nluc reporter destabilization hit call (1 = scored as downregulated) (binary); higher = compound decreases kinase abundance
Settings in all cases: K562; 2-18 h
[1] = test system: BRAF_V600E
[2] = biological target: BTK (UniProt Q06187)
[3] = biological target: CAMK2A (UniProt Q9UQM7)
[4] = biological target: CAMK2G (UniProt Q13555)
[5] = biological target: CDK10 (UniProt Q15131)
[6] = biological target: CDK2 (UniProt P24941)
[7] = biological target: CDK3 (UniProt Q00526)
[8] = biological target: CDK4 (UniProt P11802)
[9] = biological target: CDK5 (UniProt Q00535)
[10] = biological target: CDK6 (UniProt Q00534)
[11] = biological target: CDK7 (UniProt P50613)
[12] = biological target: CDK9 (UniProt P50750)
[13] = biological target: CHEK2 (UniProt O96017)
[14] = biological target: CSF1R (UniProt P07333)
[15] = biological target: CSK (UniProt P41240)
[16] = biological target: CSNK1A1 (UniProt P48729)
[17] = biological target: CSNK1D (UniProt P48730)
[18] = biological target: DDR1 (UniProt Q08345)
[19] = biological target: DYRK1B (UniProt Q9Y463)
[20] = biological target: DYRK2 (UniProt Q92630)

Chains of the proteins cited; added tags and fusions are not shown. Lines headed by an entry give the natural chain unless they say otherwise; changes in a name come on top.
UniProt Q9UQM7, whole entry: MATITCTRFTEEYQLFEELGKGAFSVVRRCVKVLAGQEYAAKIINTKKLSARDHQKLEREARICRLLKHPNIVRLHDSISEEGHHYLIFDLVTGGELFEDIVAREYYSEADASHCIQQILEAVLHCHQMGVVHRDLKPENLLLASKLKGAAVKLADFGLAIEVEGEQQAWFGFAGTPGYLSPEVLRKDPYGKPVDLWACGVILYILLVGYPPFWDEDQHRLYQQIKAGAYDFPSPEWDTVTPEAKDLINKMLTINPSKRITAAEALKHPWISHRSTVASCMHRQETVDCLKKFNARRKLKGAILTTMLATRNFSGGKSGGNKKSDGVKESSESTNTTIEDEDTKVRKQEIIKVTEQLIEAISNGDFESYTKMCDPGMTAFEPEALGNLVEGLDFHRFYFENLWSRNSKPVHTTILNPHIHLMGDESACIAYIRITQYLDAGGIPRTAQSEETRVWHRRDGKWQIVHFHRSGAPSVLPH
UniProt Q15131: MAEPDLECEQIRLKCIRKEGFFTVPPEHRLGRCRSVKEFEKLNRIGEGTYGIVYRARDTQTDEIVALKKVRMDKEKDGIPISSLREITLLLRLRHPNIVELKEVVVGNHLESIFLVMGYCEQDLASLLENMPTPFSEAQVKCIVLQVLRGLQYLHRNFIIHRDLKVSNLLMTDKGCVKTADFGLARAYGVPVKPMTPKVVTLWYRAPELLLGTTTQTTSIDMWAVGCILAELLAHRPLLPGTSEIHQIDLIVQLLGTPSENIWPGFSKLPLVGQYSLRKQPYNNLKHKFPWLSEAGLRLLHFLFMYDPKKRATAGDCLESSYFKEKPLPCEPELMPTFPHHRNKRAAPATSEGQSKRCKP
UniProt Q00526: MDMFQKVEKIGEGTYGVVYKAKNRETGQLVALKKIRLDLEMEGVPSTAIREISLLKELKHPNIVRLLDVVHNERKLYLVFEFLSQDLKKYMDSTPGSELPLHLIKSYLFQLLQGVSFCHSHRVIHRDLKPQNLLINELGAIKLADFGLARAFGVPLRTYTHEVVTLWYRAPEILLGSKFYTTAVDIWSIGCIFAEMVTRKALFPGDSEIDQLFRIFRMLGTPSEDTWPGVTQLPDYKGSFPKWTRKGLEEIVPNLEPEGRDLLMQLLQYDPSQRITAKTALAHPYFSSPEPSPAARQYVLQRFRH
UniProt P11802: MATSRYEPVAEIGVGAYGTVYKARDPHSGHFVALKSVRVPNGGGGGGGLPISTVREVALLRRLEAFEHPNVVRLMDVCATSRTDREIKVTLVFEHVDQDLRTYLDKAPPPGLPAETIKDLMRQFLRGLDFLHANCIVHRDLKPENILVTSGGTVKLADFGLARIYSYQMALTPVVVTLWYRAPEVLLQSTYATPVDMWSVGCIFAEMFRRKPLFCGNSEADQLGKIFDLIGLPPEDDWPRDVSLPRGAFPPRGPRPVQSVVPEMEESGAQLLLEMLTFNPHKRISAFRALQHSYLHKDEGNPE
UniProt Q00535, whole entry, looked up: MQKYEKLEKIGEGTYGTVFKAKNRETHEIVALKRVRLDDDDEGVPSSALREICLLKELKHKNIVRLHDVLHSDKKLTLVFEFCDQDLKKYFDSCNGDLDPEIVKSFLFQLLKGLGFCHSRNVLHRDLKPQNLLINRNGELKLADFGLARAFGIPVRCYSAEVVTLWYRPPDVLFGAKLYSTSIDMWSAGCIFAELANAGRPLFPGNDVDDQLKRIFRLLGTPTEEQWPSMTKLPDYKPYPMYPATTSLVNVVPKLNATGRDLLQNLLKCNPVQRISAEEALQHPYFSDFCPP
UniProt Q00534, whole entry: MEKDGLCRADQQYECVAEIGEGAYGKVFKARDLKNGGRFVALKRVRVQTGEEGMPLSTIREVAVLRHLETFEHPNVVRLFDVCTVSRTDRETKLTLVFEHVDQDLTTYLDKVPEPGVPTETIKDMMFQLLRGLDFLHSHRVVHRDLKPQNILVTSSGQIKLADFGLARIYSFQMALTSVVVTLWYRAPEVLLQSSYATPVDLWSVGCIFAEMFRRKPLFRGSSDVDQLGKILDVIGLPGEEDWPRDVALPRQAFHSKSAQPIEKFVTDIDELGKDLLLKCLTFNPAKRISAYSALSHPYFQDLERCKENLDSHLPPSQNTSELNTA
UniProt P50613: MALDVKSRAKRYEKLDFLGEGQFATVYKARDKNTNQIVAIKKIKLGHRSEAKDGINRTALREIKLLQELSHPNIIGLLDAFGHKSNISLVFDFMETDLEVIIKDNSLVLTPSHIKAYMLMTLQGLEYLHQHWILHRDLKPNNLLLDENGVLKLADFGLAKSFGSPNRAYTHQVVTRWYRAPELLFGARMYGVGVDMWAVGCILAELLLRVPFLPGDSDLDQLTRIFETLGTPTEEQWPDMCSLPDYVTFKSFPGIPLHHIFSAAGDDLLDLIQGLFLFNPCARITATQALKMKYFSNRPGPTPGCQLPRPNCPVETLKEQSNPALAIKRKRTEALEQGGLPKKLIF
UniProt P50750, whole entry: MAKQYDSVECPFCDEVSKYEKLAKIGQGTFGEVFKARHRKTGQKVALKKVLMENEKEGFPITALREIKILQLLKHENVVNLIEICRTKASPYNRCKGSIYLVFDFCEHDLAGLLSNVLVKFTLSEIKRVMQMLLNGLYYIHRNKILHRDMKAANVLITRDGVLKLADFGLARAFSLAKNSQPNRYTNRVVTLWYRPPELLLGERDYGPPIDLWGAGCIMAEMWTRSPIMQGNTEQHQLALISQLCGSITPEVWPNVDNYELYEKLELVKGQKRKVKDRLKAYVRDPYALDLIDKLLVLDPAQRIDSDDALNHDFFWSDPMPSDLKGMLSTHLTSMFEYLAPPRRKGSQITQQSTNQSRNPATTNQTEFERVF
UniProt P07333, whole entry: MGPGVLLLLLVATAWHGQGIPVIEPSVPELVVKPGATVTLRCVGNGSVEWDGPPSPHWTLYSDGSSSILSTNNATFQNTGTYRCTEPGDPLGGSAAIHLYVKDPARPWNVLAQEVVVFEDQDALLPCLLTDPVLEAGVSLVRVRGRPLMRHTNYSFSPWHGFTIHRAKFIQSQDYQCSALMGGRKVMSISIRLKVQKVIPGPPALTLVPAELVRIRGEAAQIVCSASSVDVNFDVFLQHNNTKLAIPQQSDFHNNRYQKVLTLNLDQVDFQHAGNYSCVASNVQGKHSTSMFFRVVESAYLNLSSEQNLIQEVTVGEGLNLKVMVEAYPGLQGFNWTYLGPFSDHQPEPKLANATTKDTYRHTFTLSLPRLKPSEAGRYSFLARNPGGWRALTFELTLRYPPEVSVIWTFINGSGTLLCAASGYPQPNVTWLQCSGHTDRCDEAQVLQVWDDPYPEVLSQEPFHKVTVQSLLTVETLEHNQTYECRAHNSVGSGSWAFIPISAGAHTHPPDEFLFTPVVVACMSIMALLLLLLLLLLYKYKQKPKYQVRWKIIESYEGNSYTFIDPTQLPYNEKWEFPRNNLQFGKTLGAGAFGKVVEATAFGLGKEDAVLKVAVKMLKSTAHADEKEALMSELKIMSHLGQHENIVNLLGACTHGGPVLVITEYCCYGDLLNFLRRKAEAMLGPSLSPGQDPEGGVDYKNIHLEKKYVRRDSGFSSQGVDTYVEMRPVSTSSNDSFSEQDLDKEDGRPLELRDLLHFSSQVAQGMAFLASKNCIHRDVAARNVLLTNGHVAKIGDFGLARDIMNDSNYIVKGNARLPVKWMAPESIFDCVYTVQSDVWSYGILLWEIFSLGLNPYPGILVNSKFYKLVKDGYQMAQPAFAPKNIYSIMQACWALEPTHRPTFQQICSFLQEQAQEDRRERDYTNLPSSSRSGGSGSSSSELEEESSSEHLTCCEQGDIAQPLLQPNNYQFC
UniProt P41240: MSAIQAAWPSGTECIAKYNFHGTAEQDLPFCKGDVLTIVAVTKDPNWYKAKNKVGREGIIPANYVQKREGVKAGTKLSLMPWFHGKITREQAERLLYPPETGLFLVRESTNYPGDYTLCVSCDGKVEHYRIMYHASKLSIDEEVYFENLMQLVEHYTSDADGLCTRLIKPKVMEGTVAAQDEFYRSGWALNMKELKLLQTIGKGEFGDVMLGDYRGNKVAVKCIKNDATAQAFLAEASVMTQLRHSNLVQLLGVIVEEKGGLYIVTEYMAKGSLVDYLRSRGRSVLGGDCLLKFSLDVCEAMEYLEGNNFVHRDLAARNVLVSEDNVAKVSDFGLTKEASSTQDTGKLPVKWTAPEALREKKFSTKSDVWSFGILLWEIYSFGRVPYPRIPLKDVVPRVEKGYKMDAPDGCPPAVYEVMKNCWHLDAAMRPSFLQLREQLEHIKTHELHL
UniProt P48729: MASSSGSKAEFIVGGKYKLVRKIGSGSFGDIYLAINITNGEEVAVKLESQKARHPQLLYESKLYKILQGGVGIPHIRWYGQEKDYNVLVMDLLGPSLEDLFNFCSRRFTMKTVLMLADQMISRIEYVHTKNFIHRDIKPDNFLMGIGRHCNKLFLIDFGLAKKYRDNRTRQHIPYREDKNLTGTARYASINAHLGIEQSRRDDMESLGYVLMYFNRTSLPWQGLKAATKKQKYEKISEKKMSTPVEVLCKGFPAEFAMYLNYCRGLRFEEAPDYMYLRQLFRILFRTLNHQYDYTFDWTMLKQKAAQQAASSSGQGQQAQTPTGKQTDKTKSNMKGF
UniProt P48730: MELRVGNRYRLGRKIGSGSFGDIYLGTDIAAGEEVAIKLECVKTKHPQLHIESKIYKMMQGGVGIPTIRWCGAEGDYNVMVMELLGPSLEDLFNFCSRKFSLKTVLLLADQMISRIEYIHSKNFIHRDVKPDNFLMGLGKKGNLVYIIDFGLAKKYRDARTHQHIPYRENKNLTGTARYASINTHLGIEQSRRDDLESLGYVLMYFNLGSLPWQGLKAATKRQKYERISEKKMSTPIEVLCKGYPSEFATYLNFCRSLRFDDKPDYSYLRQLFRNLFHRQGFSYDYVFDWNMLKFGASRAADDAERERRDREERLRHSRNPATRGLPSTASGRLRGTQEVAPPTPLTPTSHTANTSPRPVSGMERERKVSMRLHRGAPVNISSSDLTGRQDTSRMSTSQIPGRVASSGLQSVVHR
UniProt Q08345: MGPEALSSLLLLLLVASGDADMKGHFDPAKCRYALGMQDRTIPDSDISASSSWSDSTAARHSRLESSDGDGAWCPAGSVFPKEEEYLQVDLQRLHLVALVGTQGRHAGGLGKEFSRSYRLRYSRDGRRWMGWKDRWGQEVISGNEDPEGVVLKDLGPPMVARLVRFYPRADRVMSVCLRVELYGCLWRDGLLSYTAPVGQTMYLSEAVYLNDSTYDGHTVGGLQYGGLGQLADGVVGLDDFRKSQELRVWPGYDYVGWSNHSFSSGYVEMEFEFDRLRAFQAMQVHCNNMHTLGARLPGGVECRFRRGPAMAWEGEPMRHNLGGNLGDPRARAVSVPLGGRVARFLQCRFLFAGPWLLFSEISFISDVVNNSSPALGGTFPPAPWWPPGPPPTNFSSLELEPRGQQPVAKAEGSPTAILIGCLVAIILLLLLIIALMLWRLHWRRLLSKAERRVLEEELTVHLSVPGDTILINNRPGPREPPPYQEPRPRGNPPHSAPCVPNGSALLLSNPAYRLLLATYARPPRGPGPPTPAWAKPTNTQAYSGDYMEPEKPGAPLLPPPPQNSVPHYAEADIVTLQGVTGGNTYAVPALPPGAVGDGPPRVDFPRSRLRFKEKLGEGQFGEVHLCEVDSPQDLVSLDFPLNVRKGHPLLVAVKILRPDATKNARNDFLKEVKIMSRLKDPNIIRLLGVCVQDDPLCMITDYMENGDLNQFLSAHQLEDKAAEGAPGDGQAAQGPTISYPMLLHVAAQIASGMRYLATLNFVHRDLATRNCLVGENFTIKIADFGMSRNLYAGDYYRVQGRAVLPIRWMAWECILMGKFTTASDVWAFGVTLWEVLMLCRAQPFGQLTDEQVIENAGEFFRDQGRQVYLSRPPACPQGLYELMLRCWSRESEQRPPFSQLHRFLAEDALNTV
UniProt Q9Y463, whole entry, looked up: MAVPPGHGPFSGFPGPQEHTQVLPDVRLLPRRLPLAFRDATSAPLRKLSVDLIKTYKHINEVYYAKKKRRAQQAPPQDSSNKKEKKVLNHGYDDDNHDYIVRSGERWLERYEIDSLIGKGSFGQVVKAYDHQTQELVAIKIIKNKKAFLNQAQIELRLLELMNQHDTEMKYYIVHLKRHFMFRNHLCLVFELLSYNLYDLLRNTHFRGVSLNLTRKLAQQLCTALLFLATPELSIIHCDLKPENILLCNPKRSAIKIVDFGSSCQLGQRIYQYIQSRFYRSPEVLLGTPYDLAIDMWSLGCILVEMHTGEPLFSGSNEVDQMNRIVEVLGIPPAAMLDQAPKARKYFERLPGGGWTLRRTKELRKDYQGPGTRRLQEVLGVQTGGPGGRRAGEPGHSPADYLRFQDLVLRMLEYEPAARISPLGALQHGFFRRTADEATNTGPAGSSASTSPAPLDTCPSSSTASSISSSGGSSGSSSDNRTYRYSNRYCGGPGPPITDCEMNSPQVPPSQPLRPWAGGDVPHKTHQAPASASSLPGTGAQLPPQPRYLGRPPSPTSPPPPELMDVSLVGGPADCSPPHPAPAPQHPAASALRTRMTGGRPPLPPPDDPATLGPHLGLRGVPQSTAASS

Measured: kinase-Nluc reporter destabilization hit call

Cc1cc(-c2cc(OC(=O)c3ccccc3)ccc2Cl)cc2nnc(Nc3ccc(OCCN4CCCC4)cc3)nc12 (0.5 µM)
inactive: [1] 0 | [2] 0 | [3] 0 | [4] 0 | [5] 0 | [6] 0 | [7] 0 | [8] 0 | [9] 0 | [10] 0 | [11] 0 | [12] 0 | [13] 0 | [14] 0 | [15] 0 | [16] 0 | [17] 0 | [18] 0 | [19] 0 | [20] 0

CC1=C2C(=O)O[C@@H](c3ccoc3)[C@]2(C)CCC1 [Fraxinellone] (10 µM)
inactive: [1] 0 | [2] 0 | [3] 0 | [4] 0 | [5] 0 | [6] 0 | [7] 0 | [8] 0 | [9] 0 | [10] 0 | [11] 0 | [12] 0 | [13] 0 | [14] 0 | [15] 0 | [16] 0 | [17] 0 | [18] 0 | [19] 0 | [20] 0

CC(C)=CC[C@H](O)C1=CC(=O)c2c(O)ccc(O)c2C1=O [(-)-Alkannin] (2.5 µM)
inactive: [1] 0 | [2] 0 | [3] 0 | [4] 0 | [5] 0 | [6] 0 | [7] 0 | [8] 0 | [9] 0 | [10] 0 | [11] 0 | [12] 0 | [13] 0 | [14] 0 | [15] 0 | [16] 0 | [17] 0 | [18] 0 | [19] 0 | [20] 0

CCn1c(-c2nonc2N)nc2cnc(Oc3cccc(NC(=O)c4ccc(OCCN5CCOCC5)cc4)c3)cc21 (10 µM)
inactive: [1] 0 | [2] 0 | [3] 0 | [4] 0 | [5] 0 | [6] 0 | [7] 0 | [8] 0 | [9] 0 | [10] 0 | [11] 0 | [12] 0 | [13] 0 | [14] 0 | [15] 0 | [16] 0 | [17] 0 | [18] 0 | [19] 0 | [20] 0

Cn1cnc(-c2cc3nccc(Oc4ccc(NC(=S)NC(=O)Cc5ccccc5)cc4F)c3s2)c1 [MGCD-265 analog] (10 µM)
inactive: [1] 0 | [2] 0 | [3] 0 | [4] 0 | [5] 0 | [6] 0 | [7] 0 | [8] 0 | [9] 0 | [10] 0 | [11] 0 | [12] 0 | [13] 0 | [14] 0 | [15] 0 | [16] 0 | [17] 0 | [18] 0 | [19] 0 | [20] 0

CNc1nc(Nc2cnn(C3CCN(C4COC4)CC3F)c2Cl)ncc1C(F)(F)F (stereo not given) (10 µM)
inactive: [1] 0 | [2] 0 | [3] 0 | [4] 0 | [5] 0 | [6] 0 | [7] 0 | [8] 0 | [9] 0 | [10] 0 | [11] 0 | [12] 0 | [13] 0 | [14] 0 | [15] 0 | [16] 0 | [17] 0 | [18] 0 | [19] 0 | [20] 0

CC1CCc2nc(N)c(C#N)c(-c3cccnc3)c2C1 (stereo not given) (10 µM)
inactive: [1] 0 | [2] 0 | [3] 0 | [4] 0 | [5] 0 | [6] 0 | [7] 0 | [8] 0 | [9] 0 | [10] 0 | [11] 0 | [12] 0 | [13] 0 | [14] 0 | [15] 0 | [16] 0 | [17] 0 | [18] 0 | [19] 0 | [20] 0

CC(C)=CCC[C@](C)(O[C@@H]1O[C@H](CO)[C@@H](O)[C@H](O)[C@H]1O)[C@H]1CC[C@]2(C)[C@@H]1[C@H](O)C[C@@H]1[C@@]3(C)CC[C@H](O)C(C)(C)[C@@H]3[C@@H](O[C@@H]3O[C@H](CO)[C@@H](O)[C@H](O)[C@H]3O[C@@H]3O[C@@H](C)[C@H](O)[C@@H](O)[C@H]3O)C[C@]12C [Ginsenoside Re] (10 µM)
inactive: [1] 0 | [2] 0 | [3] 0 | [4] 0 | [5] 0 | [6] 0 | [7] 0 | [8] 0 | [9] 0 | [10] 0 | [11] 0 | [12] 0 | [13] 0 | [14] 0 | [15] 0 | [16] 0 | [17] 0 | [18] 0 | [19] 0 | [20] 0

O=C(NCCCNc1nc(Nc2cccc(NC(=O)N3CCCC3)c2)ncc1I)c1cccs1 (2.5 µM)
inactive: [1] 0 | [2] 0 | [3] 0 | [4] 0 | [5] 0 | [6] 0 | [7] 0 | [8] 0 | [9] 0 | [10] 0 | [11] 0 | [12] 0 | [13] 0 | [14] 0 | [15] 0 | [16] 0 | [17] 0 | [18] 0 | [19] 0 | [20] 0

CC/C=C\C/C=C\C/C=C\CCCCCCCC(=O)O [α-Linolenic acid] (10 µM)
inactive: [1] 0 | [2] 0 | [3] 0 | [4] 0 | [5] 0 | [6] 0 | [7] 0 | [8] 0 | [9] 0 | [10] 0 | [11] 0 | [12] 0 | [13] 0 | [14] 0 | [15] 0 | [16] 0 | [17] 0 | [18] 0 | [19] 0 | [20] 0

CC(C)c1cnc(-c2cc(Cl)ccc2F)cc1Nc1ccncc1C(=O)NC(CO)CO (2.5 µM)
inactive: [1] 0 | [2] 0 | [3] 0 | [4] 0 | [5] 0 | [6] 0 | [7] 0 | [8] 0 | [9] 0 | [10] 0 | [11] 0 | [12] 0 | [13] 0 | [14] 0 | [15] 0 | [16] 0 | [17] 0 | [18] 0 | [19] 0 | [20] 0

C=CC(=O)Nc1cccc(C)c1Nc1ncc2cc(-c3c(Cl)c(OC)cc(OC)c3Cl)ccc2n1 (2.5 µM)
inactive: [1] 0 | [2] 0 | [3] 0 | [4] 0 | [5] 0 | [6] 0 | [7] 0 | [8] 0 | [9] 0 | [10] 0 | [11] 0 | [12] 0 | [13] 0 | [14] 0 | [15] 0 | [16] 0 | [17] 0 | [18] 0 | [19] 0 | [20] 0

C=C(CCC=C(C)C)[C@H]1CC[C@]2(C)[C@@H]1[C@H](O)C[C@@H]1[C@@]3(C)CC[C@H](O[C@@H]4O[C@H](CO)[C@@H](O)[C@H](O)[C@H]4O[C@@H]4O[C@H](CO)[C@@H](O)[C@H](O)[C@H]4O)C(C)(C)[C@@H]3CC[C@]12C [Ginsenoside Rk1] (10 µM)
inactive: [1] 0 | [2] 0 | [3] 0 | [4] 0 | [5] 0 | [6] 0 | [7] 0 | [8] 0 | [9] 0 | [10] 0 | [11] 0 | [12] 0 | [13] 0 | [14] 0 | [15] 0 | [16] 0 | [17] 0 | [18] 0 | [19] 0 | [20] 0

CC(C)CC1(O)CCN(C(=O)c2ccc(NS(=O)(=O)c3cccc4nccnc34)cc2)CC1 (10 µM)
inactive: [1] 0 | [2] 0 | [3] 0 | [4] 0 | [5] 0 | [6] 0 | [7] 0 | [8] 0 | [9] 0 | [10] 0 | [11] 0 | [12] 0 | [13] 0 | [14] 0 | [15] 0 | [16] 0 | [17] 0 | [18] 0 | [19] 0 | [20] 0

COc1cc([N+](=O)[O-])ccc1S(=O)(=O)N1C[C@@H](CN2CCN(c3ccccn3)CC2)[C@H](c2cccc(F)c2)C1 (relative stereo) (10 µM)
inactive: [1] 0 | [2] 0 | [3] 0 | [4] 0 | [5] 0 | [6] 0 | [7] 0 | [8] 0 | [9] 0 | [10] 0 | [11] 0 | [12] 0 | [13] 0 | [14] 0 | [15] 0 | [16] 0 | [17] 0 | [18] 0 | [19] 0 | [20] 0

CC(C)(NS(=O)(=O)c1ccc2c(Cl)cnc(N=C(N)N)c2c1)C(=O)O (10 µM)
inactive: [1] 0 | [2] 0 | [3] 0 | [4] 0 | [5] 0 | [6] 0 | [7] 0 | [8] 0 | [9] 0 | [10] 0 | [11] 0 | [12] 0 | [13] 0 | [14] 0 | [15] 0 | [16] 0 | [17] 0 | [18] 0 | [19] 0 | [20] 0

CN(CCNc1ccc2ncc(-c3ccc(C(N)=O)cc3)n2n1)C(=O)OC(C)(C)C (10 µM)
inactive: [1] 0 | [2] 0 | [3] 0 | [4] 0 | [5] 0 | [6] 0 | [7] 0 | [8] 0 | [9] 0 | [10] 0 | [11] 0 | [12] 0 | [13] 0 | [14] 0 | [15] 0 | [16] 0 | [17] 0 | [18] 0 | [19] 0 | [20] 0

Ordered by molar mass (rising): part of the list above
CN(CCNc1ccc2ncc(-c3ccc(C(N)=O)cc3)n2n1)C(=O)OC(C)(C)C (10 µM)
inactive: [1] 0 | [2] 0 | [3] 0 | [4] 0 | [5] 0 | [6] 0 | [7] 0 | [8] 0 | [9] 0 | [10] 0 | [11] 0 | [12] 0 | [13] 0 | [14] 0 | [15] 0 | [16] 0 | [17] 0 | [18] 0 | [19] 0 | [20] 0

COc1cc([N+](=O)[O-])ccc1S(=O)(=O)N1C[C@@H](CN2CCN(c3ccccn3)CC2)[C@H](c2cccc(F)c2)C1 (relative stereo) (10 µM)
inactive: [1] 0 | [2] 0 | [3] 0 | [4] 0 | [5] 0 | [6] 0 | [7] 0 | [8] 0 | [9] 0 | [10] 0 | [11] 0 | [12] 0 | [13] 0 | [14] 0 | [15] 0 | [16] 0 | [17] 0 | [18] 0 | [19] 0 | [20] 0

C=C(CCC=C(C)C)[C@H]1CC[C@]2(C)[C@@H]1[C@H](O)C[C@@H]1[C@@]3(C)CC[C@H](O[C@@H]4O[C@H](CO)[C@@H](O)[C@H](O)[C@H]4O[C@@H]4O[C@H](CO)[C@@H](O)[C@H](O)[C@H]4O)C(C)(C)[C@@H]3CC[C@]12C [Ginsenoside Rk1] (10 µM)
inactive: [1] 0 | [2] 0 | [3] 0 | [4] 0 | [5] 0 | [6] 0 | [7] 0 | [8] 0 | [9] 0 | [10] 0 | [11] 0 | [12] 0 | [13] 0 | [14] 0 | [15] 0 | [16] 0 | [17] 0 | [18] 0 | [19] 0 | [20] 0

— the supplement of paper PMC12823440, “Inhibitors supercharge kinase turnover through native proteolytic circuits” (Nature, 2025)
